Results deposited as PubChem BioAssay AID686943 (Drosophila RNAi Screening Center, 2013).
In all, the deposit lists about 23,000 reagents; shown is an unselected part of those with a known target gene and a result. 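Extra replicates exist only for a retested subset of genes; insulin dose and duration not given; both raised and lowered dpERK matter.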 A plus sign joins genes that one reagent is predicted to hit. The record does not give: the amount of reagent, the time to read-out.

Screen: 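Knockdowns that increase or decrease active ERK after insulin receptor stimulation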 (primary screen)
Cell system: Drosophila S2R+ haemocyte-like cells expressing YFP-tagged ERK (Rolled)
Reagents: long dsRNA against Drosophila genes
Conditions: insulin stimulation versus unstimulated cells; dose and duration not given
Read-out: 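Antibody staining for doubly phosphorylated ERK divided by ERK-YFP signal, as plate z-scores, in insulin-treated and untreated cells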
Scale: replicate 1, z-score of dpERK with insulin and replicate 2, z-score of dpERK with insulin: higher = more active ERK per ERK-YFP after insulin; replicate 1, z-score of dpERK under basal conditions: higher = more basal active ERK per ERK-YFP; replicate 1, z-score of ERK-YFP with insulin: higher = more YFP-tagged ERK signal

target gene,dsRNA,"replicate 1, z-score of dpERK with insulin","replicate 2, z-score of dpERK with insulin","replicate 1, z-score of dpERK under basal conditions","replicate 1, z-score of ERK-YFP with insulin"
CG14304,DRSC14783,0.61,0.97,-1.82,0.45
CG5921,DRSC17431,0.01,-0.17,0.15,0.36
CG5921,DRSC18390,-0.05,0,0.06,0.07
lncRNA:CR43409,DRSC01164,0.83,0.28,0.07,0.32
CG11698,DRSC14355,0.96,0.42,2.27,-0.14
ssx,DRSC18492,-0.91,-2.95,3.42,-2.34
prc,DRSC11385,0.81,0.32,0.09,0.19
BBS4,DRSC06352,0.4,0.62,1.11,0.91
TpnC47D,DRSC07564,0.2,-1.15,0.45,0.42
CG31211,DRSC14953,0.1,1.48,-0.02,0.15
CG31211,DRSC15344,1.31,1.66,0.19,0.73
CG31211,DRSC21478,-1.26,-0.62,2.08,0.18
S-Lap8,DRSC06870,-0.29,0.2,0.71,0.18
S-Lap8,DRSC21372,0.48,0.32,0.61,0.19
ATP6AP2,DRSC16420,1.21,0.85,-1.08,0

Part of the list above, showing only “replicate 2, z-score of dpERK with insulin”:
CG11698 [DRSC14355] = 0.42
ssx [DRSC18492] = -2.95
prc [DRSC11385] = 0.32
BBS4 [DRSC06352] = 0.62
TpnC47D [DRSC07564] = -1.15

Next records:
target gene,dsRNA,"replicate 1, z-score of dpERK with insulin","replicate 2, z-score of dpERK with insulin","replicate 1, z-score of dpERK under basal conditions","replicate 1, z-score of ERK-YFP with insulin"
CG14974,DRSC08433,-1.47,-1.54,-0.33,1.08
Seipin,DRSC18654,1.98,-0.87,1.54,-1.99
Fnta,DRSC00557,0.58,0.55,-0.75,0.46
CG3355,DRSC00598,-0.6,-0.09,-0.09,-0.1
l(1)10Bb,DRSC20346,0.02,1.03,-1.63,-3.2
CG6149,DRSC10593,0.23,0.87,0.1,0.19
TBC1d7 + mRpS24,DRSC14611,-0.47,-0.05,0.12,0.86
CG17646,DRSC00507,-0.37,0.23,-0.67,-0.69
Arl6,DRSC07031,0.68,0.17,0.07,0.38
CG43322,DRSC02280,0.23,-0.04,0.5,0.33
Bcs1,DRSC02789,-0.13,-0.19,0.4,-0.53
Zfrp8,DRSC04352,-0.16,0.39,1.28,-0.32
CG7668,DRSC10901,0.74,0.08,-0.11,-0.06
TER94,DRSC07560,0.14,-0.98,-2.45,0.62
CG2211,DRSC08559,0.05,0.53,-0.6,0.47
CG13282,DRSC02254,-0.22,-0.19,-0.19,0.38
PNKP,DRSC16512,-0.36,-0.75,1.12,0.54
dimm,DRSC03100,0.05,0.88,0.45,-0.01
Map60,DRSC07464,0.53,-0.06,-0.51,0.38
CG13454,DRSC10001,-0.5,-0.32,-0.24,0.72
NitFhit,DRSC08680,1.46,1.35,-0.39,-0.84
CG13716,DRSC08325,0.46,-0.14,0.57,0.31
CG13716,DRSC22815,0.11,0.23,0.09,0.18
CG7248,DRSC10788,0.88,0.26,1.4,0.18
